Source: paper doi:10.1101/2020.03.23.004119
Results are given in words; binding and its absence hold for the method and conditions named. Binding seen in cells or lysates may run through a third protein. These calls come from enrichment with a bait or labelling near it, and not all partners need be listed.

By UniProt entry, the sequences of proteins in these tests, tags left out.
UniProt Q16877: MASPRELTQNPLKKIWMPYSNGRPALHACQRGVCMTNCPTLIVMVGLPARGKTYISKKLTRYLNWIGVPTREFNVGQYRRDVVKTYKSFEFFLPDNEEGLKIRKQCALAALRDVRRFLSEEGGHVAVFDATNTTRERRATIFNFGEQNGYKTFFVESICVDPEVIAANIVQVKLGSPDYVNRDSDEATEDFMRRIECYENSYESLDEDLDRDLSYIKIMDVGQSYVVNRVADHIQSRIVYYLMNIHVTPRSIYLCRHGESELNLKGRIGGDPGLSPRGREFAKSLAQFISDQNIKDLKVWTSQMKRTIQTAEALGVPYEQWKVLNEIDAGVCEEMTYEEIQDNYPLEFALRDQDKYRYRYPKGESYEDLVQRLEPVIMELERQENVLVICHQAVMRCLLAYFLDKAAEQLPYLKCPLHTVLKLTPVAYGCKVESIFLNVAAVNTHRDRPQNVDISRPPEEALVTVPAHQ
UniProt O60725: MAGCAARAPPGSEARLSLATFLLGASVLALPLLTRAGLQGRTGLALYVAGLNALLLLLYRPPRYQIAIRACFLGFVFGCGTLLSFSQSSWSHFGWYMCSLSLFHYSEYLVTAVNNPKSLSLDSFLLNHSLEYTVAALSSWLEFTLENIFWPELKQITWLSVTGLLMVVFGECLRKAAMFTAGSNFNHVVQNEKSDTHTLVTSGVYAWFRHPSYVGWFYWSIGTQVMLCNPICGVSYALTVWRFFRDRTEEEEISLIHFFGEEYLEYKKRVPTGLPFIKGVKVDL

Biological target: FLAG-tagged human PFKFB4 (human) (UniProt Q16877)
Assay: affinity purification with mass spectrometry

isoprenylcystein carboxyl methyl transferase (ICMT), endogenous (from UniProt O60725 1-284) (enzyme)
binding: binds
